Patent publication US20060257938A1, “Method of screening for drugs that block ligand binding to a lipid binding protein” (priority 2005, published 2006)

B1: 14V 18L 73V 117A 72A (protein, listed as Rattus norvegicus)
chain: AFDGTWKVDRNENVEKFLEKMGINVVKRKLGAHDNLKLTITQEGNKFTVKESSNFRNIDVVFELGVDFAYSAVDGTELTGTWTMEGNKLVGKFKRVDNGKELIAVREISGNELIQTATYEGVEAKRIFKKE
modifications: PEPTIDE (1)...(131) wild-type rat intestinal fatty acid binding protein
B2: 18L 55L 73I 72A (protein, listed as Rattus norvegicus)
chain: AFDGTWKVDRNENYEKFLEKMGINVVKRKLGAHDNLKLTITQEGNKFTVKESSNLRNIDVVFELGVDFAYSAIDGTELTGTWTMEGNKLVGKFKRVDNGKELIAVREISGNELIQTYTYEGVEAKRIFKKE
modifications: PEPTIDE (1)...(131) wild-type rat intestinal fatty acid binding protein
B3: 14L 72G (protein, listed as Rattus norvegicus)
chain: AFDGTWKVDRNENLEKFMEKMGINVVKRKLGAHDNLKLTITQEGNKFTVKESSNFRNIDVVFELGVDFAYSGADGTELTGTWTMEGNKLVGKFKRVDNGKELIAVREISGNELIQTYTYEGVEAKRIFKKE
modifications: PEPTIDE (1)...(131) wild-type rat intestinal fatty acid binding protein
B4: 55Q, 72A (protein, listed as Rattus norvegicus)
chain: AFDGTWKVDRNENYEKFMEKMGINVVKRKLGAHDNLKLTITQEGNKFTVKESSNQRNIDVVFELGVDFAYSAADGTELTGTWTMEGNKLVGKFKRVDNGKELIAVREISGNELIQTYTYEGVEAKRIFKKE
modifications: PEPTIDE (1)...(131) wild-type rat intestinal fatty acid binding protein
B5: 21W 72A (protein, listed as Rattus norvegicus)
chain: AFDGTWKVDRNENYEKFMEKWGINVVKRKLGAHDNLKLTITQEGNKFTVKESSNFRNIDVVFELGVDFAYSAADGTELTGTWTMEGNKLVGKFKRVDNGKELIAVREISGNELIQTYTYEGVEAKRIFKKE
modifications: PEPTIDE (1)...(131) wild-type rat intestinal fatty acid binding protein
B6: 21W 78F 72A (protein, listed as Rattus norvegicus)
chain: AFDGTWKVDRNENYEKFMEKWGINVVKRKLGAHDNLKLTITQEGNKFTVKESSNFRNIDVVFELGVDFAYSAADGTEFTGTWTMEGNKLVGKFKRVDNGKELIAVREISGNELIQTYTYEGVEAKRIFKKE
modifications: PEPTIDE (1)...(131) wild-type rat intestinal fatty acid binding protein
B7: 38Y 18L 73V 72A (protein, listed as Rattus norvegicus)
chain: AFDGTWKVDRNENYEKFLEKMGINVVKRKLGAHDNLKYTITQEGNKFTVKESSNFRNIDVVFELGVDFAYSAVDGTELTGTWTMEGNKLVGKFKRVDNGKELIAVREISGNELIQTYTYEGVEAKRIFKKE
modifications: PEPTIDE (1)...(131) wild-type rat intestinal fatty acid binding protein
B8: 11M, 72A (protein, listed as Rattus norvegicus)
chain: AFDGTWKVDRMENYEKFMEKMGINVVKRKLGAHDNLKLTITQEGNKFTVKESSNFRNIDVVFELGVDFAYSAADGTELTGTWTMEGNKLVGKFKRVDNGKELIAVREISGNELIQTYTYEGVEAKRIFKKE
modifications: PEPTIDE (1)...(131) wild-type rat intestinal fatty acid binding protein
B9: 115H, 72A (protein, listed as Rattus norvegicus)
chain: AFDGTWKVDRNENYEKFMEKMGINVVKRKLGAHDNLKLTITQEGNKFTVKESSNFRNIDVVFELGVDFAYSAADGTELTGTWTMEGNKLVGKFKRVDNGKELIAVREISGNELIHTYTYEGVEAKRIFKKE
modifications: PEPTIDE (1)...(131) wild-type rat intestinal fatty acid binding protein
B10: 55V, 72A (protein, listed as Rattus norvegicus)
chain: AFDGTWKVDRNENYEKFMEKMGINVVKRKLGAHDNLKLTITQEGNKFTVKESSNVRNIDVVFELGVDFAYSAADGTELTGTWTMEGNKLVGKFKRVDNGKELIAVREISGNELIQTYTYEGVEAKRIFKKE
modifications: PEPTIDE (1)...(131) wild-type rat intestinal fatty acid binding protein
B11: 104F, 72A (protein, listed as Rattus norvegicus)
chain: AFDGTWKVDRNENYEKFMEKMGINVVKRKLGAHDNLKLTITQEGNKFTVKESSNFRNIDVVFELGVDFAYSAADGTELTGTWTMEGNKLVGKFKRVDNGKELIFVREISGNELIQTYTYEGVEAKRIFKKE
modifications: PEPTIDE (1)...(131) wild-type rat intestinal fatty acid binding protein
B12: 23Y, 72A (protein, listed as Rattus norvegicus)
chain: AFDGTWKVDRNENYEKFMEKMGYNVVKRKLGAHDNLKLTITQEGNKFTVKESSNFRNIDVVFELGVDFAYSAADGTELTGTWTMEGNKLVGKFKRVDNGKELIAVREISGNELIQTYTYEGVEAKRIFKKE
modifications: PEPTIDE (1)...(131) wild-type rat intestinal fatty acid binding protein
B13: 104G, 72A (protein, listed as Rattus norvegicus)
chain: AFDGTWKVDRNENYEKFMEKMGINVVKRKLGAHDNLKLTITQEGNKFTVKESSNFRNIDVVFELGVDFAYSAADGTELTGTWTMEGNKLVGKFKRVDNGKELIGVREISGNELIQTYTYEGVEAKRIFKKE
modifications: PEPTIDE (1)...(131) wild-type rat intestinal fatty acid binding protein
B14: 115N, 72A (protein, listed as Rattus norvegicus)
chain: AFDGTWKVDRNENYEKFMEKMGINVVKRKLGAHDNLKLTITQEGNKFTVKESSNFRNIDVVFELGVDFAYSAADGTELTGTWTMEGNKLVGKFKRVDNGKELIAVREISGNELINTYTYEGVEAKRIFKKE
modifications: PEPTIDE (1)...(131) wild-type rat intestinal fatty acid binding protein
B15: 18L 73L 72A (protein, listed as Rattus norvegicus)
chain: AFDGTWKVDRNENYEKFLEKMGINVVKRKLGAHDNLKLTITQEGNKFTVKESSNFRNIDVVFELGVDFAYSALDGTELTGTWTMEGNKLVGKFKRVDNGKELIAVREISGNELIQTYTYEGVEAKRIFKKE
modifications: PEPTIDE (1)...(131) wild-type rat intestinal fatty acid binding protein
B16: 21W 78I 72A (protein, listed as Rattus norvegicus)
chain: AFDGTWKVDRNENYEKFMEKWGINVVKRKLGAHDNLKLTITQEGNKFTVKESSNFRNIDVVFELGVDFAYSAADGTEITGTWTMEGNKLVGKFKRVDNGKELIAVREISGNELIQTYTYEGVEAKRIFKKE
modifications: PEPTIDE (1)...(131) wild-type rat intestinal fatty acid binding protein
B17: 82V, 72A (protein, listed as Rattus norvegicus)
chain: AFDGTWKVDRNENYEKFMEKMGINVVKRKLGAHDNLKLTITQEGNKFTVKESSNFRNIDVVFELGVDFAYSAADGTELTGTVTMEGNKLVGKFKRVDNGKELIAVREISGNELIQTYTYEGVEAKRIFKKE
modifications: PEPTIDE (1)...(131) wild-type rat intestinal fatty acid binding protein

Assay: Baseline fluorescence ratio Ro of probe in absence of analyte
Settings: baseline fluorescence ratio of probe

First: B1
Second: B2
The Ro of the first is lower: 0.110 for the first, 0.474 for the second.

Compared with B3, B4 is lower in Ro: 0.377 for the first, 0.225 for the second.

First: B5
Second: B6
The Ro of the first is higher: 0.616 for the first, 0.604 for the second.

First: B7
Second: B8
The Ro of the first is higher: 0.386 for the first, 0.325 for the second.

Going from B9 to B10, the Ro rises from 0.155 to 0.169.

First: B11
Second: B12
The Ro of the first is higher: 0.344 for the first, 0.265 for the second.

Going from B13 to B14, the Ro rises from 0.162 to 0.164.

Compared with B15, B16 is higher in Ro: 0.283 for the first, 0.664 for the second.

Molecule B17 has a Ro of 0.263.
